Source: PubChem BioAssay AID1224828 (NIAID, 2016)
This is an unselected part of about 17,000 deposited reagents. Over the whole deposit, 762 (4.5%) were called active. 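Active calls include both raised and lowered p65 entry, mostly lowered; wells with fewer than 50 cells lack a z-score.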 Raw values vary from plate to plate and are shown uncorrected. Some reagents were tested in more than one well and are listed for each.

- Assay: 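Find genes required for NF-kappaB p65 moving into the nucleus after LPS in mouse macrophages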 (primary screen)
- Cell system: mouse RAW264.7 G9 macrophage reporter cells (GFP-p65, Tnf promoter-mCherry)
- Reagents: siRNA pool against mouse genes, 100 nM
- Time to read-out: 2 days siRNA transfection, then 40 min LPS before fixation
- Treatment: LPS (Salmonella minnesota R595) at 10 ng/ml
- Detection: 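Microscopy ratio of nuclear to perinuclear-ring GFP-p65 signal, scaled to the plate median; gene score is the average of two replicate robust z-scores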
- Reading the numbers: p65 translocation robust z-score: higher = more nuclear NF-kappaB p65 after LPS than the plate median; nuclear/cytoplasmic p65 ratio: higher = more nuclear NF-kappaB p65
- Rule for the call: 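Active if robust z is above 3.3 (negative regulators) or below -1.56, the Tlr4 control median (positive regulators); activity score 50 or more; control wells not called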
- Calls: active = hit (p65 shift raised or lowered); inactive = no clear change

What did the screen give for Gss?
p65 translocation robust z-score: -0.77; nuclear/cytoplasmic p65 ratio, rep 1: 1.35; nuclear/cytoplasmic p65 ratio, rep 2: 1.25; low cell count flag: enough cells to score; activity call: inactive

How did the screen score H2bc26?
p65 translocation robust z-score: 2.58; nuclear/cytoplasmic p65 ratio, rep 1: 1.57; nuclear/cytoplasmic p65 ratio, rep 2: 1.92; low cell count flag: enough cells to score; activity call: inactive

For Yod1, what was measured?
p65 translocation robust z-score: 1.58; nuclear/cytoplasmic p65 ratio, rep 1: 1.58; nuclear/cytoplasmic p65 ratio, rep 2: 1.82; low cell count flag: enough cells to score; activity call: inactive

For Cyb5r2, what does the deposit list?
p65 translocation robust z-score: 1.86; nuclear/cytoplasmic p65 ratio, rep 1: 1.8; nuclear/cytoplasmic p65 ratio, rep 2: 1.53; low cell count flag: enough cells to score; activity call: inactive

For Cmtm3, what was measured?
p65 translocation robust z-score: -0.43; nuclear/cytoplasmic p65 ratio, rep 1: 1.52; nuclear/cytoplasmic p65 ratio, rep 2: 1.72; low cell count flag: enough cells to score; activity call: inactive

What did the screen give for Zfp97?
p65 translocation robust z-score: -0.08; nuclear/cytoplasmic p65 ratio, rep 1: 1.43; nuclear/cytoplasmic p65 ratio, rep 2: 1.22; low cell count flag: enough cells to score; activity call: inactive

With Reg3b, how do the results read?
p65 translocation robust z-score: -0.88; nuclear/cytoplasmic p65 ratio, rep 1: 1.35; nuclear/cytoplasmic p65 ratio, rep 2: 1.28; low cell count flag: enough cells to score; activity call: inactive

For Ebf3, what was measured?
nuclear/cytoplasmic p65 ratio, rep 1: 1.22; nuclear/cytoplasmic p65 ratio, rep 2: 1.23; low cell count flag: fewer than 50 cells per well; well left out of scoring; activity call: inactive

How did the screen score Dffa?
p65 translocation robust z-score: 2.1; nuclear/cytoplasmic p65 ratio, rep 1: 1.71; nuclear/cytoplasmic p65 ratio, rep 2: 1.7; low cell count flag: enough cells to score; activity call: inactive

With Copz2, what does the deposit list?
p65 translocation robust z-score: 1.12; nuclear/cytoplasmic p65 ratio, rep 1: 1.74; nuclear/cytoplasmic p65 ratio, rep 2: 1.97; low cell count flag: enough cells to score; activity call: inactive

With Mrgprx1, what was measured?
p65 translocation robust z-score: -0.99; nuclear/cytoplasmic p65 ratio, rep 1: 1.66; nuclear/cytoplasmic p65 ratio, rep 2: 1.41; low cell count flag: enough cells to score; activity call: inactive

For Mrgprx1, what does the deposit list?
p65 translocation robust z-score: -1.22; nuclear/cytoplasmic p65 ratio, rep 1: 1.37; nuclear/cytoplasmic p65 ratio, rep 2: 1.41; low cell count flag: enough cells to score; activity call: inactive
